Reference: PubChem BioAssay AID652272 (Drosophila RNAi Screening Center, 2013)

Aim: 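Genes whose knock-down decreases or increases Hedgehog reporter output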 (primary screen)
Cell system: Drosophila clone 8 (Cl8) cells
Knock-down reagent: long dsRNA against Drosophila genes
Measured: 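Plate reader light from a firefly reporter under a ptc promoter fragment that responds to Hedgehog, with Renilla light as transfection reference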
Direction: firefly Hh reporter signal: higher = more ptc reporter light; Renilla reference signal: higher = more Renilla control light
Hit rule: 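Called a hit if the two-replicate mean z-score lies below -2 or above +3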
Calls: active = hit: reporter lowered or raised; inactive = not a hit
The deposit covers about 21,000 reagents; shown is an unselected part of those with a known target gene and a result. Over the whole deposit, 503 (2.4%) are marked active. 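Raw plate light values, not normalised; calls rest on replicate z-scores that were not deposited; hits include reporter decreases as well as increases.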 Entries without a mark were called inactive. Names joined by + are all predicted targets of the reagent. The record does not give: the amount of reagent, the time to read-out.

Gene | DRSC id | firefly Hh reporter signal, replicate 1 | firefly Hh reporter signal, replicate 2 | firefly Hh reporter signal, replicate 3 | Renilla reference signal, replicate 1 | Renilla reference signal, replicate 2
Rchy1 | DRSC02542 | 52889 | 23764 | – | 1072 | 3045
CG2528 | DRSC03724 | 95238 | 57011 | – | 2491 | 5360
CG16704 | DRSC00475 | 1.82e5 | 72580 | – | 4224 | 6960
plx | DRSC12260 | 86599 | 1.08e5 | – | 3449 | 2793
plx | DRSC12385 | 1.39e5 | 4.80e5 | 1.30e5 | 4940 | 2868
CG16974 | DRSC02551 | 1.50e5 | 74266 | – | 4858 | 2795
Usp20-33 | DRSC07196 | 1.43e5 | 86304 | – | 5649 | 3798
CG31404 | DRSC15497 | 6.46e5 | 96513 | – | 35303 | 2496
OS9 | DRSC02700 | 70668 | 47970 | – | 2082 | 4912
CG5892 | DRSC15910 | 4.88e5 | 1.91e5 | – | 23120 | 3568
CG42502 + CG10570 | DRSC02071 | 1.08e5 | 63508 | – | 4426 | 2710
Es2 | DRSC18663 | 89190 | 72106 | – | 2312 | 2168
CG14391 | DRSC14850 | 82656 | 1.24e5 | – | 2549 | 3480
Hdc | DRSC07439 | 61163 | 26816 | – | 2793 | 1273
CG8708 | DRSC07240 | 77130 | 48179 | – | 2496 | 1737
arx | DRSC10386 | 67245 | 79780 | – | 2981 | 3596
CG12483 | DRSC08278 | 99888 | 41302 | – | 3419 | 3138
DCTN2-p50 | DRSC07132 | 98317 | 62535 | – | 3415 | 2019
Coprox | DRSC01996 | 40176 | 38042 | – | 2802 | 1638
Eip75B | DRSC09526 | 2.66e5 | – | – | 6080 | –
Eip75B | DRSC11161 | 43707 | 29430 | – | 2124 | 1143
CG13870 | DRSC06429 | 85554 | 39394 | – | 1961 | 235
Trxr2 | DRSC11900 | 69334 | 83477 | – | 2669 | 1029

Look-ups from the list:
CG12483 [DRSC08278], Renilla reference signal, replicate 1: 3419
plx [DRSC12385], firefly Hh reporter signal, replicate 1 → 1.39e5
Result for CG16974 [DRSC02551] in “firefly Hh reporter signal, replicate 2”: 74266
